Results: patent EP0792271B1, “FURAN DERIVATIVES FOR INHIBITING PNEUMOCYSTIS CARINII PNEUMONIA, GIARDIA LAMBLIA AND CRYPTOSPORIDIUM PARVUM” (priority 1994, dated 1996)
At least one structure is not confirmed: it was looked up by name or label, or the drawing left a doubt.

Experiments:
[1] = molecular target: topoisomerase II isolated from Giardia lamblia; assay: Topoisomerase II inhibition (Giardia lamblia enzyme); assay type: biochemical; settings: 50% inhibition of topoisomerase II isolated from Giardia lamblia; read-out: IC50 Topoisomerase Activity II G.l.
[2] = tested on: poly A poly T; assay: DNA thermal melting (increase in Tm of poly A poly T); assay type: binding; settings: MES buffer pH 6.0, 0.1 M NaCl, ratio of 0.3 moles of compound to nucleic acid bases
Description: Thermal melting curves for DNA and its complexes with compounds from Examples 4, 6, and 7-9 are determined as previously described in F.A. Tanious, et al., J.Biomol. Structure & Dynamics 11:1063 (1994) and W.D. Wilson, et al., Biochemistry 32:4098 (1993), by following the adsorption change at 260 nm as a function of temperature. Tm values were determined from first derivative plots. Compounds are compared by the increase in Tm (ΔTm=Tm of complex - Tm of the free nucleic acid) they produce in MES buffer (0.01M 2-(N-morpholino) ethanesulfonic acid, 0.001 M EDTA, 0.1 M NaCl adjusted to pH 6.0) at saturating amounts of compound (a ratio of 0.3 moles of compound to nucleic acid bases) unless otherwise indicated.

[3] = molecular target: topoisomerase I isolated from Pneumocystis carinii; assay: Topoisomerase I inhibition (Pneumocystis carinii enzyme); assay type: biochemical; settings: 50% inhibition of topoisomerase I isolated from Pneumocystis carinii

c1cc(-c2ccc(-c3ccc(C4=NCCN4)cc3)o2)ccc1C1=NCCN1 [Compound 2, 2,5-bis[4-(2-imidazolinyl)phenyl]furan]
IC50 [1]: 3 to 5 µM | ΔTm DNA [2]: 24 °C | IC50 [3]: 50 to 100 µM
